PubChem BioAssay AID504764 – Drosophila RNAi Screening Center | 2011

Aim: 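Genome-wide screen for regulators of Notch-driven gene expression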 (primary screen)
Cell system: Drosophila Kc167 cells
Knock-down reagent: long dsRNA against Drosophila genes
Duration: about 5 days (4 days dsRNA, then 24 h after transfection)
Treatment: transfection of constitutively active membrane-tethered Notch lacking the extracellular domain, read 24 h later
Measurement: 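Light from a Notch-responsive E(spl)m3 luciferase reporter under active Notch, with control-promoter and no-Notch reporter wells to normalise; raw counts from paired wells a and b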
Scale: induced reporter light, run 1, well a and induced reporter light, run 1, well b: higher = more light from the Notch target reporter with active Notch; control promoter light, run 1, well a and control promoter light, run 1, well b: higher = more light from the viral control promoter (cell number, transfection, viability); uninduced reporter light, run 1, well a: higher = more light from the Notch target reporter without active Notch
Call rule: 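Wells with low control signal or poorly matching duplicates excluded; duplicates averaged; per source plate, z beyond ±2 for induced/control log2 ratio or beyond ±1.8 for induced/uninduced marks a hit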
Meaning of the calls: active = modifier hit (raised or lowered Notch signal); inactive = not a hit
In all, the deposit lists about 22,000 reagents; this is a random part of those that have a named target and a result. In the full data, 403 (1.9%) got an active call. 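Unnormalised raw counts per well; ratio z-scores behind the hit calls and whether each hit raises or lowers signal are not deposited.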 A plus sign joins genes that one reagent is predicted to hit. The record does not give: the amount of reagent.

no.	Gene	dsRNA	induced reporter light, run 1, well a	induced reporter light, run 1, well b	control promoter light, run 1, well a	control promoter light, run 1, well b	uninduced reporter light, run 1, well a	activity call
1	Muc11A	DRSC19498	1.37e5	1.41e5	2.80e5	2.98e5	10325	inactive
2	Urod	DRSC07569	2.12e5	1.85e5	2.25e5	2.69e5	19732	inactive
3	resilin	DRSC05627	95995	1.07e5	1.17e5	1.25e5	8300	inactive
4	resilin	DRSC06595	1.16e5	1.10e5	93550	97065	5995	inactive
5	Prestin	DRSC10507	1.26e5	1.85e5	2.07e5	1.84e5	7585	inactive
6	Ugt37C1	DRSC07416	1.36e5	99790	92700	1.47e5	8885	inactive
7	CG4988	DRSC02800	1.57e5	1.73e5	1.02e5	1.40e5	18550	inactive
8	Rpe	DRSC06407	2.14e5	2.32e5	2.31e5	1.90e5	16095	inactive
9	CG8483	DRSC16430	1.49e5	1.44e5	95285	91360	9135	inactive
10	Gcn2	DRSC16678	1.88e5	1.81e5	2.41e5	2.63e5	12510	inactive
11	CG5892	DRSC15910	1.96e5	1.85e5	1.87e5	1.93e5	14965	inactive
12	bcd + CR14578	DRSC20984	63750	84615	84515	1.11e5	10665	inactive
13	CR9337	DRSC03212	1.09e5	1.34e5	90905	94080	6210	inactive
14	VhaAC39-1	DRSC18242	1.55e5	1.69e5	1.95e5	1.82e5	12155	inactive
15	CG10038	DRSC14178	1.11e5	99810	69465	88360	7892	inactive
16	RagA-B	DRSC14450	75635	77205	66205	59270	5775	inactive
17	Skeletor (retired record)	DRSC14905	1.04e5	74815	74170	57610	5760	inactive
18	Skeletor (retired record)	DRSC14906	1.49e5	1.28e5	1.01e5	93110	9855	inactive
19	CG13675	DRSC08908	68670	59785	45450	54945	7380	inactive
20	CG13675	DRSC10034	15285	14990	12585	10535	6295	inactive
21	Asph	DRSC06783	1.18e5	1.29e5	2.40e5	2.06e5	8392	inactive
22	Asph	DRSC07171	1.32e5	1.15e5	2.60e5	3.03e5	11642	inactive
23	rempA	DRSC00327	1.16e5	1.02e5	1.05e5	69945	10795	inactive
24	CG7747	DRSC07038	1.02e5	1.27e5	2.46e5	2.44e5	9720	inactive
25	CG10841	DRSC14271	1.71e5	1.63e5	1.25e5	1.13e5	10510	inactive
26	Dolk	DRSC07143	45640	32650	40960	34510	4065	inactive
27	CG5039	DRSC15703	1.38e5	1.02e5	1.92e5	1.80e5	11160	inactive
28	CG11857	DRSC14411	1.61e5	1.95e5	2.47e5	2.01e5	13835	inactive
29	Cyp313b1	DRSC16629	1.01e5	98855	1.03e5	80570	8532	inactive
30	rad (retired record)	DRSC19687	1.30e5	1.16e5	2.55e5	1.71e5	8278	inactive
31	rad (retired record)	DRSC22865						inactive
32	CG15916	DRSC19740	69005	74160	80250	69670	10845	inactive
33	CG13325	DRSC06362	1.61e5	1.57e5	1.27e5	1.29e5	10460	inactive
34	CG7214	DRSC03028	1.95e5	1.82e5	1.63e5	1.87e5	14925	inactive
35	CG7214	DRSC21869						inactive
36	CG30334	DRSC05345	2.36e5	2.33e5	2.00e5	2.14e5	17828	inactive
37	CG14628	DRSC18626	1.06e5	1.05e5	1.71e5	1.81e5	7210	inactive
38	RpL32	DRSC16835	7945	6465	14480	12025	575	inactive
39	CG34386	DRSC06467	20055	18115	17760	19460	5205	inactive
40	CG34386	DRSC06468	88795	85860	1.05e5	98925	6430	inactive
41	CG30480	DRSC06736	86555	81145	1.13e5	1.03e5	9195	inactive
42	POLDIP2	DRSC12194	1.50e5	1.05e5	80820	79195	10105	inactive
43	Sas-4	DRSC12505	1.05e5	1.22e5	1.11e5	94120	7838	inactive
44	Kpc1	DRSC16107	1.65e5	1.86e5	1.20e5	1.26e5	10280	inactive
45	CG7058	DRSC20021	64045	87550	60975	96620	9760	inactive
46	mim	DRSC05013	12300	11245	13630	14385	3735	inactive
47	CG8774	DRSC16445	1.44e5	1.44e5	1.25e5	1.07e5	10210	inactive
48	CG30196	DRSC04156	2.16e5	2.03e5	1.86e5	1.79e5	14700	inactive
49	CG31200	DRSC15285	1.85e5	1.89e5	2.02e5	1.92e5	11120	inactive
50	lig	DRSC07246	73770	72425	66950	85005	9050	inactive
51	lig	DRSC07247	1.67e5	1.83e5	1.40e5	1.18e5	26215	inactive
